From article PMC12172431 come the findings set out here.

By UniProt entry, the sequences of proteins in these tests, tags left out.
UniProt P41455: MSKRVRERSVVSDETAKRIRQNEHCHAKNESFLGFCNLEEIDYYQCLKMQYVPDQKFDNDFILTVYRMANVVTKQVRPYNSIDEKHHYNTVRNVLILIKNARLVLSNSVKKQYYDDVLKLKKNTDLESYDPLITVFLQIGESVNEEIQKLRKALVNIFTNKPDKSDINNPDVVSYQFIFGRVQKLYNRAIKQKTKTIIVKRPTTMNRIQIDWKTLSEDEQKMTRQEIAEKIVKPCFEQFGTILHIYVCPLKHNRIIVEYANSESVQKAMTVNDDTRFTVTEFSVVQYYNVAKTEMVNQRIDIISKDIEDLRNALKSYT
UniProt P41467: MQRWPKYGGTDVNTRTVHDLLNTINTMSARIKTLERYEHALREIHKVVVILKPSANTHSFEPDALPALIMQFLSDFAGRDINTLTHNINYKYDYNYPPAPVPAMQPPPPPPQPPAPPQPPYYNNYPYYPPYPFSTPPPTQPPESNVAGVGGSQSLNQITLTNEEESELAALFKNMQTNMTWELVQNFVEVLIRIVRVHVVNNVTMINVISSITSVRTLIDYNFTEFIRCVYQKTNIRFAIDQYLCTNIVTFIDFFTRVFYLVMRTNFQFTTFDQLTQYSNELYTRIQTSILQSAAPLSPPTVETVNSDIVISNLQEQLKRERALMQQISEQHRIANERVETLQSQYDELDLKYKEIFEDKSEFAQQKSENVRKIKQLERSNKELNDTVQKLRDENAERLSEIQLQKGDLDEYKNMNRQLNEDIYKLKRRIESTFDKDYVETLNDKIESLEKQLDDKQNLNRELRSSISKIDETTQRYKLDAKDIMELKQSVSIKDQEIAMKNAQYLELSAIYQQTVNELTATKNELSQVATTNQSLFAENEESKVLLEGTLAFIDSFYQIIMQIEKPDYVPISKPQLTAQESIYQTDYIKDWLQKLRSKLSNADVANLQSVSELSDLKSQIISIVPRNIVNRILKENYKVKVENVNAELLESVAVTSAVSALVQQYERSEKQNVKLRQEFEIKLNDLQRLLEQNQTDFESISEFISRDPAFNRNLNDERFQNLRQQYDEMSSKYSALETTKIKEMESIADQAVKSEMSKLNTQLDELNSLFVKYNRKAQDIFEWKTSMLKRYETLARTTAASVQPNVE
UniProt Q04719: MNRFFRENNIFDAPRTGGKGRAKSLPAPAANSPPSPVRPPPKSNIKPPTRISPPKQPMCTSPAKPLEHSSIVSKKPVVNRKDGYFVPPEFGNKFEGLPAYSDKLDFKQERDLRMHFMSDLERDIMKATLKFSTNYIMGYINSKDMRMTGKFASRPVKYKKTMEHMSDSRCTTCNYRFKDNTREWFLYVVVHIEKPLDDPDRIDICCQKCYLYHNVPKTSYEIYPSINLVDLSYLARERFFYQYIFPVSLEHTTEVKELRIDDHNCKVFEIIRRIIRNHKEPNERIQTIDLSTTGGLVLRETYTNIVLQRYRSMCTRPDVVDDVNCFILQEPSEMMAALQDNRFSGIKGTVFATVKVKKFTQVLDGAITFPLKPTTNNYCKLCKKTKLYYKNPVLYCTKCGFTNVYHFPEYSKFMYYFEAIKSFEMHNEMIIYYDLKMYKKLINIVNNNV
UniProt P24730: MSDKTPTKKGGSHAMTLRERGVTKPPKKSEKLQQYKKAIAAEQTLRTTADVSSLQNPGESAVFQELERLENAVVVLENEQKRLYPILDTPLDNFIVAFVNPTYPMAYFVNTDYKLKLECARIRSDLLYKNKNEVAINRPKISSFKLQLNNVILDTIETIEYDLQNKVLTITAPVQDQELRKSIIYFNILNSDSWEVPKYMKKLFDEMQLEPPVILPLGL

These are yes or no findings as the source states them, for the method shown. In cells and extracts the contact can be indirect. Some binding calls cover weakened binding; strength is not graded here.

Experiment [1] addresses Ac51 (AcMNPV) (UniProt P41455). Put plainly: co-IP; Sf9 cells transfected with pIB-ME53GFP and infected with vAcWT or vAcWT^Ac66Flag, or infected with vAc132HA alone or with vAcWT^Ac66Flag, 48 h p.i.; IP with anti-Ac51 or anti-Flag antibody, IgG control; western blot. (Immunoblotting shows a protein as a band on a membrane.)
Experiment [2] concerns the target Flag-tagged Ac66 (AcMNPV) (UniProt P41467). The description is as above.
In experiment [3] the target is Ac51 (AcMNPV) (UniProt P41455). Put plainly: co-IP; Sf9 cells infected with vAcWT^Ac66Flag or vAcWT^EXON0Flag (MOI 5), 48 h p.i.; lysate on Flag-conjugated magnetic beads, or anti-Ac51 antibody with protein A/G agarose, 4°C overnight; IgG control; western blot.
The target of experiment [4] is Flag-tagged Ac66 (AcMNPV) (UniProt P41467). The experiment is described as above.

In the case of ME53GFP (from UniProt Q04719 1-449), the binding result (with Ac51 (AcMNPV) [1]; in experiment [2]) was “binds” in each case.

In the case of “Flag-tagged Ac66 (from UniProt P41467 1-808)”, in the experiment with Ac51 (AcMNPV) [3], the binding result is listed as “binds”. Turning to Ac51 (from UniProt P41455 1-318), in experiment [4], the binding entry was “binds”. On to Ac132HA (from UniProt P24730 1-219), for which the binding result (in the experiment with Ac51 (AcMNPV) [1]; in experiment [2]) was “binds” each time.
